# This is one part of the list.
# B1: LERP (Drosophila melanogaster), B7Z0Q8 (protein)
# chain: MRCSLQKDCAAPTQENFRQMRFPIVISLLLLLFCSGESVAADAANQLKFSTTECKLKEPIYGSTFDFSGLHSDLAHVVKSMNIGGDQFEFNICGNLSRTCNGESNVAACLKRQGKEYILGRQHELFYNNGNMFLKYKSGAKCDNGTADKPNYQLHVMFSCDYTLDAQPMHVTPYANEVCSFYISYRTPLACLSIPEGLQSNSCRVGDTKSNGTFDLMPLSDSNYHTSNRQGAFFVINVCKPVLYGENSMCPAGSSVCLFDSKATNPKERFINFGNVQTHPVVEKGQLLLRHESPTPCAKNSSANYTSVIYFSCDKFIRNAHPEFAGLGADSCTYQFNFATPLACNDLKPCTAFTSTNELLDLSSLSSKPARTLLKDGKNYTIAVCAHAGAPCQENGGACYEQNSTTISLGNSNSQLRFNQTGSLYLLYEDGAECSTATGMRRWSTKIEFVCANNATKDNGASTAGGSDSLKIIEDSNCQLLIQYQTPLACREPIRCKATTYVDHTNDGLGSSGDELIDLTPLISATDNYEARVELPASMEHLVPKTTKFFLNVCRPLVPKYQLGCAGGSAACMAKVTAAGAPEEERSMGFPLVSLTQRNRTFAELAYLKGDPCPTDNTSELSTHILFNCNMRAGRGQPVLRSVEDCAYRFEWETNVFCPPHECTFSADTCDLVHDELGRRFNFKSAPFTKDGKIEIDYNATKMSVNICGAHRKAMTDYSQALVNIFFTHESPNCGREGTMNVQIRLICSDQTESSSTISSDQQCNLLYVQRTPSICEFLSLGATQQNFESNGSTSSSTSSSSTSTTTSTTTQASPAGKPTKAATSTTTTTVGPDPAATPIGPTASVGTILGAILSVTFCVTCLGLLAFSPARRQRIRRLFRRSNSAVRYSRVQSNEEANLLLEPNGEFTESDDDMLL
# Legend:
# Test in all cases: glycan array binding signal (z-score within array); higher = stronger binding
# Settings in all cases: glycan notation: IUPAC condensed, linker removed
# [1] = target: Gal(b1-3)GalNAc(a1-3)[Fuc(a1-2)]Gal(b1-4)GlcNAc
# In short: (§1)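 Glycan array data came from 3228 arrays in the Consortium for Functional Glycomics database, and only arrays with an available protein sequence were kept. Glycan names were put into IUPAC-condensed notation, and columns mapping to the same glycan were averaged. The binding signal is a within-array Z-score, averaged across arrays of one protein sequence run at different concentrations or buffers and across linkers. A negative Z-score can be read as non-binding.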
# [2] = target: Gal(b1-3)GalNAc(b1-3)Gal(a1-4)Gal(b1-4)Glc
# In short: as §1
# [3] = target: Gal(b1-3)GalNAc(b1-4)Gal(b1-4)Glc
# In short: as §1
# [4] = target: Gal(b1-3)GalNAc(b1-4)[Neu5Ac(a2-3)]Gal(b1-4)Glc
# In short: as §1
# Gal(b1-3)GlcNAc = target: Gal(b1-3)GlcNAc
# In short: as §1
# [5] = target: Gal(b1-3)GlcNAc(a1-6)Gal(b1-4)GlcNAc
# In short: as §1
# [6] = target: Gal(b1-3)GlcNAc(b1-2)Man(a1-3)[Gal(b1-3)GlcNAc(b1-2)Man(a1-6)]Man(b1-4)GlcNAc(b1-4)GlcNAc
# In short: as §1
# [7] = target: Gal(b1-3)GlcNAc(b1-2)Man(a1-3)[Gal(b1-3)GlcNAc(b1-2)Man(a1-6)]Man(b1-4)GlcNAc(b1-4)[Fuc(a1-6)]GlcNAc
# In short: as §1
# [8] = target: Gal(b1-3)GlcNAc(b1-3)Gal(b1-3)GlcNAc
# In short: as §1
# [9] = target: Gal(b1-3)GlcNAc(b1-3)Gal(b1-4)Glc
# In short: as §1
# [10] = target: Gal(b1-3)GlcNAc(b1-3)Gal(b1-4)GlcNAc
# In short: as §1
# [11] = target: Gal(b1-3)GlcNAc(b1-3)Gal(b1-4)GlcNAc(b1-6)[Gal(b1-3)GlcNAc(b1-3)]Gal(b1-4)Glc
# In short: as §1
# [12] = target: Gal(b1-3)GlcNAc(b1-3)Gal(b1-4)[Fuc(a1-3)]GlcNAc(b1-6)[Gal(b1-3)GlcNAc(b1-3)]Gal(b1-4)Glc
# In short: as §1
# [13] = target: Gal(b1-3)GlcNAc(b1-3)GalNAc
# In short: as §1
# [14] = target: Gal(b1-3)GlcNAc(b1-6)Gal(b1-4)GlcNAc
# In short: as §1
# [15] = target: Gal(b1-3)[Fuc(a1-4)]GlcNAc
# In short: as §1
# [16] = target: Gal(b1-3)[Fuc(a1-4)]GlcNAc(b1-2)Man(a1-3)[Gal(b1-3)[Fuc(a1-4)]GlcNAc(b1-2)Man(a1-6)]Man(b1-4)GlcNAc(b1-4)GlcNAc
# In short: as §1
# [17] = target: Gal(b1-3)[Fuc(a1-4)]GlcNAc(b1-2)Man(a1-3)[Gal(b1-3)[Fuc(a1-4)]GlcNAc(b1-2)Man(a1-6)]Man(b1-4)GlcNAc(b1-4)[Fuc(a1-6)]GlcNAc
# In short: as §1
# [18] = target: Gal(b1-3)[Fuc(a1-4)]GlcNAc(b1-3)Gal(b1-3)[Fuc(a1-4)]GlcNAc
# In short: as §1
# [19] = target: Gal(b1-3)[Fuc(a1-4)]GlcNAc(b1-3)Gal(b1-4)GlcNAc
# In short: as §1
# [20] = target: Gal(b1-3)[Fuc(a1-4)]GlcNAc(b1-3)Gal(b1-4)[Fuc(a1-3)]GlcNAc
# In short: as §1
# [21] = target: Gal(b1-3)[GlcNAc(b1-6)]GalNAc
# In short: as §1
# [22] = target: Gal(b1-3)[Neu5Ac(a2-6)]GalNAc
# In short: as §1
# [23] = target: Gal(b1-3)[Neu5Ac(a2-6)]GlcNAc(b1-6)Gal(b1-4)Glc
# In short: as §1
# [24] = target: Gal(b1-3)[Neu5Ac(b2-6)]GalNAc
# In short: as §1
# [25] = target: Gal(b1-4)GalNAc(a1-3)[Fuc(a1-2)]Gal(b1-4)GlcNAc
# In short: as §1
# [26] = target: Gal(b1-4)GalNAc(b1-3)[Fuc(a1-2)]Gal(b1-4)GlcNAc
# In short: as §1
# Gal(b1-4)Glc = target: Gal(b1-4)Glc
# In short: as §1
# Gal(b1-4)Glc6S = target: Gal(b1-4)Glc6S
# In short: as §1
# Gal(b1-4)GlcNAc = target: Gal(b1-4)GlcNAc
# In short: as §1
binder,measurement,setting,value
B1,glycan array binding signal (z-score),[1],0.279
same,glycan array binding signal (z-score),[2],-0.989
same,glycan array binding signal (z-score),[3],-0.354
same,glycan array binding signal (z-score),[4],-0.302
same,glycan array binding signal (z-score),Gal(b1-3)GlcNAc,0.159
same,glycan array binding signal (z-score),[5],-1.13
same,glycan array binding signal (z-score),[6],-1.3
same,glycan array binding signal (z-score),[7],0.938
same,glycan array binding signal (z-score),[8],-0.572
same,glycan array binding signal (z-score),[9],0.732
same,glycan array binding signal (z-score),[10],-0.404
same,glycan array binding signal (z-score),[11],0.223
same,glycan array binding signal (z-score),[12],-0.58
same,glycan array binding signal (z-score),[13],-0.333
same,glycan array binding signal (z-score),[14],-0.449
same,glycan array binding signal (z-score),[15],0.487
same,glycan array binding signal (z-score),[16],1.6
same,glycan array binding signal (z-score),[17],5.88
same,glycan array binding signal (z-score),[18],1.56
same,glycan array binding signal (z-score),[19],0.429
same,glycan array binding signal (z-score),[20],-0.847
same,glycan array binding signal (z-score),[21],-0.465
same,glycan array binding signal (z-score),[22],-0.837
same,glycan array binding signal (z-score),[23],0.244
same,glycan array binding signal (z-score),[24],-0.153
same,glycan array binding signal (z-score),[25],0.664
same,glycan array binding signal (z-score),[26],1.48
same,glycan array binding signal (z-score),Gal(b1-4)Glc,0.771
same,glycan array binding signal (z-score),Gal(b1-4)Glc6S,-0.389
same,glycan array binding signal (z-score),Gal(b1-4)GlcNAc,0.272

# Another view of some results above:
binder | measurement | setting | value
B1 | glycan array binding signal (z-score) | [21] | -0.465
same | glycan array binding signal (z-score) | [22] | -0.837
same | glycan array binding signal (z-score) | [23] | 0.244
same | glycan array binding signal (z-score) | [24] | -0.153
same | glycan array binding signal (z-score) | [25] | 0.664
same | glycan array binding signal (z-score) | [26] | 1.48

# — the supplement of paper PMC8728848
